This is one part of the list. Shown are side measurements of this screen, not its main read-out; they come without a call. Most of these compounds were active or inconclusive in the main read-out, so they are no random draw. The note in brackets gives the kind of curve behind each potency; many fits are weak.
Experiment: qHTS Assay for Modulators of Lamin A Splicing
Details: HeLa LMNA splicing GFP/RFP minigene ratio, 48 h
How it was run: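 S3 HeLa cells stably expressing lamin A-EGFP splicing minigene plus DsRed2, 600 cells/well, 48 h compound exposure at 37C. Laser-scanning cytometry; analysed as GFP (500-530 nm)/RFP (575-640 nm) total intensity ratio; 0.5% DMSO vehicle.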

[1] = measured here: GFP splicing reporter channel
[2] = measured here: RFP viability control channel

| Compound | AC50 [1] | AC50 [2] |
| --- | --- | --- |
| Cc1cccc(-n2ncc3c(NC4CCCCC4)ncnc32)c1 | 0.126 µM [rising, partial curve] | 11.2 µM [rising, partial curve] |
| C[C@H](N=C(NC#N)Nc1ccncc1)C(C)(C)C | 0.0794 µM [falling, full curve, poor fit] | – |
| CCCn1c(=O)c(C(=O)NCc2ccc(OC)c(OC)c2)c(O)c2ccccc21 | 6.31 µM [rising, partial curve] | – |
| O=S1(=O)c2ccccc2N(Cc2cccc(Cl)c2)c2ccccc21 | – | 0.00794 µM [falling, full curve, poor fit] |
| CCOc1ccc(/C=N/NC2=NCCCCC2)cc1 | 0.0224 µM [falling, full curve, poor fit] | 0.001 µM [falling, full curve, poor fit] |
| CC(C)CCNC(=O)CN1C(=O)CSc2ccc(S(=O)(=O)N3CCCCC3)cc21 | 20 µM [falling, partial curve, poor fit] | 35.5 µM [falling, single point] |
| CCOc1ccc(CCNC(=O)c2ccc(N3CCCC3=O)cc2)cc1OCC | – | 14.1 µM [rising, single point] |
| Cc1cccc(NC(=O)N2CCCC2C(=O)Nc2ccccc2)c1 (stereo not drawn) | 0.0224 µM [rising, full curve, poor fit] | – |
| C/C(=C\C(=O)c1ccc(Br)cc1)N1CCCCC1 | – | 35.5 µM [rising, single point] |
| CCCn1c2ccccc2c2cnn(CC(=O)N(CCCOC)Cc3ccco3)c(=O)c21 | 0.0224 µM [falling, full curve, poor fit] | – |
| O=C1CC(c2ccc(O)cc2)Oc2ccccc21 (stereo not drawn) | 20 µM [falling, partial curve, poor fit] | – |
| CSc1nsc2nc(=O)c(/C=C3\C=Nc4ccccc43)c(N)n12 | – | 5.62 µM [falling, single point] |
| Cc1cc(/C=C2/SC(=O)N(CC(=O)OC(C)C)C2=O)c(C)n1C | 15.8 µM [rising, single point] | 31.6 µM [rising, single point] |
| CCOc1ccc(C(=O)Nc2ccc(NC(=O)c3ccco3)c(Cl)c2)cc1Br | – | 11.2 µM [falling, partial curve] |
| O=C(CCCN1C(=O)c2cccc3cccc(c23)C1=O)N1CCN(c2ccccn2)CC1 | 11.2 µM [rising, partial curve] | – |
| CC(CO)NCC12CC3CC(CC(C3)C1)C2 (stereo not drawn) | 22.4 µM [rising, partial curve, poor fit] | – |
| Fc1ccc(Nc2nc3ccccc3s2)cc1 | 0.794 µM [falling, full curve, poor fit] | – |
| CC1(C)CC(=O)C(C(C2=C(O)CC(C)(C)CC2=O)c2ccc(Br)s2)C(=O)C1 (stereo not drawn) | 35.5 µM [falling, single point] | – |

| Compound | AC50 [1] | AC50 [2] |
| --- | --- | --- |
| CCOC(=O)Nc1ccc2c(c1)Nc1ccccc1S2 | – | 15.8 µM [rising, single point] |
| FC(F)(F)c1cccc(NC(=S)N2CCN(c3cccc(C(F)(F)F)c3)CC2)c1 | 17.8 µM [rising, partial curve, poor fit] | 15.8 µM [rising, partial curve] |
| COc1ccc2[nH]c(=O)c(CN(Cc3cccs3)S(=O)(=O)c3cccc4nsnc34)cc2c1 | – | 3.16 µM [rising, full curve, poor fit] |
| Cc1cc(=O)[nH]c(SCC(=O)Nc2cccc3ccccc23)c1C#N | 35.5 µM [rising, single point] | 35.5 µM [rising, single point] |
| O=C(CSc1nc2ccc(Cl)cc2[nH]1)Nc1ccc2c(c1)CCC2 | 0.398 µM [falling, full curve, poor fit] | – |
| COc1ccc(C(=O)N2CCCC(c3nc(-c4ccc(OC)c(OC)c4)no3)C2)c(OC)c1 (stereo not drawn) | 11.2 µM [rising, partial curve] | 14.1 µM [rising, partial curve] |
| Nc1c(C(=O)NCc2ccco2)c2nc3ccccc3nc2n1CCc1ccc(F)cc1 | 14.1 µM [falling, single point] | – |
| CC12COC3(C(=O)Nc4ccc(Cl)cc4)CC1CCC32C (stereo not drawn) | 1.26 µM [rising, partial curve] | 14.1 µM [rising, single point] |
| Cc1cccc(N=C2NC(=O)/C(=C/C=C/c3ccco3)S2)c1 | – | 15.8 µM [rising, single point] |
| CNC(=O)/C(C#N)=C/c1c(N(Cc2ccccc2)Cc2ccccc2)nc2c(C)cccn2c1=O | 35.5 µM [rising, single point] | 35.5 µM [rising, partial curve] |
| COc1ccc(CNc2ncnc3onc(-c4ccc(F)cc4)c23)cc1 | 0.316 µM [rising, full curve, poor fit] | – |
| CN(C)C(=O)COC(=O)c1ccccc1Nc1ccc(SC(F)F)cc1 | – | 2.82 µM [rising, full curve] |
| COc1ccc(C(=O)Nc2cccnc2)cc1S(=O)(=O)N1CCOCC1 | – | 0.00355 µM [falling, full curve, poor fit] |
| COc1cccc(OC)c1C(=O)Nc1c(C)n(C)n(-c2ccccc2)c1=O | 3.16 µM [falling, partial curve, poor fit] | – |
| COc1cc(NC(=S)N2CCN(C(c3ccccc3)c3ccccc3)CC2)cc(OC)c1 | 35.5 µM [rising, single point] | 25.1 µM [rising, single point] |
| Cn1c(SCC(=O)N2CCN(c3ccccc3)CC2)nnc1-c1ccccc1 | 14.1 µM [rising, partial curve] | 17.8 µM [rising, partial curve] |
| CC(=O)c1ccc(NC(=O)c2sc(-n3nc(C)c(Cc4ccccc4)c3C)nc2C)cc1 | 0.891 µM [falling, full curve, poor fit] | 1.78 µM [falling, partial curve] |
| NNC(=O)c1oc2ccccc2c1-n1cccc1 | 0.0224 µM [falling, full curve, poor fit] | – |

Three compounds from above, arranged by length of the SMILES, ascending:

| Compound | AC50 [1] | AC50 [2] |
| --- | --- | --- |
| NNC(=O)c1oc2ccccc2c1-n1cccc1 | 0.0224 µM [falling, full curve, poor fit] | – |
| Cc1cccc(N=C2NC(=O)/C(=C/C=C/c3ccco3)S2)c1 | – | 15.8 µM [rising, single point] |
| CN(C)C(=O)COC(=O)c1ccccc1Nc1ccc(SC(F)F)cc1 | – | 2.82 µM [rising, full curve] |
